According to patent publication US20060134746:
For at least one entry, the source does not settle the construct or the ends of the probe.

Columns and labels:
Assay in all cases: activity in cells
[1] = target: azobenzyl-PheRS (Methanococcus jannaschii) (UniProt Q57834); conditions: myoglobin-75TAG amber suppression in E. coli only with 1 mM azobenzyl-Phe; protein in cells
[2] = target: C8RS (1G8) (Escherichia coli) (UniProt P07813); conditions: hSOD-33TAG amber suppression in yeast only with 1 mM alpha-aminocaprylic acid; protein in cells
[3] = target: nbCRS (3H11) (Escherichia coli) (UniProt P07813); conditions: hSOD-33TAG amber suppression in yeast only with 1 mM o-nitrobenzyl cysteine; protein in cells
[4] = target: OMeYRS (3A7) (Escherichia coli) (UniProt P07813); conditions: hSOD-33TAG amber suppression in yeast only with 1 mM O-methyl tyrosine; protein in cells

| Sequence | functional effect [1] | functional effect [2] | functional effect [3] | functional effect [4] |
| --- | --- | --- | --- | --- |
| CCGGCGGUAGUUCAGCAGGGCAGAACGGCGGACUCUAAAUCCGCAAGGCGCUGGUUCAAAUCCGGCUCGCCGGACCA [mutant MjtRNATyrCUA] | active |  |  |  |
| GCCCGGAUGGUGGAAUCGGUAGACACAAGGGAUUCUAAAUCCCUCGGCGUUCGCGCUGUGCGGGUUCAAGUCCCGCUCCGGGUACCA [Leu5CUA amber suppressor tRNA] |  | active | active | active |
